{"source": "the supplement of paper PMC4604168 (melanoma cell lines)", "note": "The list shows a part of the results. Single values are uncertain, as repeats are few or missing.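 Imaging used 1,536-well plates; nuclei positive for cleaved PARP by antibody were divided by total DNA-stained nuclei to yield the apoptosis fraction. Doses for screening kept most cells viable, and cell lines differ markedly in resting and induced cleaved-PARP levels.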"}
{"test_system": "SkMel2", "experiment": "cleaved PARP positive nuclei fraction relative to DMSO control; melanoma cells; higher = more apoptosis", "conditions": "library dose: low library concentration; 72 h", "units": {"cleaved PARP positive nuclei fraction": "%"}}
{"smiles": "CC(=O)c1c(C)c2cnc(Nc3ccc(N4CCNCC4)cn3)nc2n(C2CCCC2)c1=O", "note": "[palbociclib] + OCc1c[nH]c2ccccc12 [Indole-3-carbinol] (first compound 0.04 µM, partner dose 0.8 µM)", "cleaved PARP positive nuclei fraction": 165}
{"smiles": "Clc1ccc(Nc2nnc(Cc3ccncc3)c3ccccc23)cc1", "note": "[vatalanib] + COCC[n+]1c2c(n(Cc3cnccn3)c1C)C(=O)c1ccccc1C2=O [YM155] (first compound 2 µM, partner dose 0.0004 µM)", "cleaved PARP positive nuclei fraction": 68.1}
{"smiles": "CC1(C)NC(=O)N(c2ccc([N+](=O)[O-])c(C(F)(F)F)c2)C1=O", "note": "[nilutamide] + O=C(Nc1cccc(Cl)c1)Nc1ncc(CCNc2ncnc3ccsc23)s1 [SNS314] (first compound 1 µM, partner dose 0.0008 µM)", "cleaved PARP positive nuclei fraction": 96.5}
{"smiles": "Nc1cccc2c1CN(C1CCC(=O)NC1=O)C2=O", "note": "(stereo unspecified) [lenalidomide] + C[C@]1(c2nc3c(C(N)=O)cccc3[nH]2)CCCN1 [Veliparib] (first compound 1 µM, partner dose 1.4 µM)", "cleaved PARP positive nuclei fraction": 103}
{"smiles": "OCc1c[nH]c2ccccc12", "note": "[Indole-3-carbinol] + COc1ccc(Cl)c(Nc2nc3ccccc3nc2NS(=O)(=O)c2cccc(NC(=O)C(C)(C)N)c2)c1 [XL147] (first compound 0.8 µM, partner dose 0.8 µM)", "cleaved PARP positive nuclei fraction": 164}
{"smiles": "CC(=O)c1c(C)c2cnc(Nc3ccc(N4CCNCC4)cn3)nc2n(C2CCCC2)c1=O", "note": "[palbociclib] + Clc1ccc(Nc2nnc(Cc3ccncc3)c3ccccc23)cc1 [vatalanib] (first compound 0.04 µM, partner dose 2 µM)", "cleaved PARP positive nuclei fraction": 179}
